Assay results reported in publication PMC11647625.
No constants are given. Whether binding was seen depends on the method and setting. Binding seen in cells or lysates may run through a third protein. For some assays here: A result given as binding can be weak or reduced; the word gives no strength.

Tests used:
[1] = biological target: GST fused with the SH2 domain of the R486K mutant of 3BP2; test: pull-down; 20 ug GST fusion protein bound to GSH beads incubated with precleared BMDC lysates (without or with curdlan stimulation for 30 min) for 2 h at 4 °C; washed four times with lysis buffer (50 mM Tris-HCl pH 7.4, 150 mM NaCl, 1% Triton-X 100); immunoblotting; only the target purified
[2] = biological target: glutathione S-transferase (GST) fused with the SH2 domain of WT 3BP2; test: as above

binding [1]: no binding
binding [2]: binds
B1: hematopoietic cell-specific Lyn substrate 1 (protein, UniProt P49710 1-486)
chain: MWKSVVGHDVSVSVETQGDDWDTDPDFVNDISEKEQRWGAKTIEGSGRTEHINIHQLRNKVSEEHDILKKKELESGPKASHGYGGRFGVERDRMDKSAVGHEYVADVEKHSSQTDAARGFGGKYGVERDRADKSAVGFDYKGEVEKHASQKDYSHGFGGRYGVEKDKRDKAALGYDYKGETEKHESQRDYAKGFGGQYGIQKDRVDKSAVGFNEMEAPTTAYKKTTPIEAASSGARGLKAKFESLAEEKRKREEEEKAQQMARQQQERKAVVKMSREVQQPSMPVEEPAAPAQLPKKISSEVWPPAESHLPPESQPVRSRREYPVPSLPTRQSPLQNHLEDNEEPPALPPRTPEGLQVVEEPVYEAAPELEPEPEPDYEPEPETEPDYEDVGELDRQDEDAEGDYEDVLEPEDTPSLSYQAGPSAGAGGAGISAIALYDYQGEGSDELSFDPDDIITDIEMVDEGWWRGQCRGHFGLFPANYVKLL
